# No constants are given. Whether binding was seen depends on the method and setting. In cells and extracts the contact can be indirect. A yes stands for co-enrichment or nearness to the bait. Other partners may have been found.
# Amino acid sequences for entries named in this document (tags omitted). A change or cut given only in a name is not applied to a line headed by its entry.
# UniProt P01106: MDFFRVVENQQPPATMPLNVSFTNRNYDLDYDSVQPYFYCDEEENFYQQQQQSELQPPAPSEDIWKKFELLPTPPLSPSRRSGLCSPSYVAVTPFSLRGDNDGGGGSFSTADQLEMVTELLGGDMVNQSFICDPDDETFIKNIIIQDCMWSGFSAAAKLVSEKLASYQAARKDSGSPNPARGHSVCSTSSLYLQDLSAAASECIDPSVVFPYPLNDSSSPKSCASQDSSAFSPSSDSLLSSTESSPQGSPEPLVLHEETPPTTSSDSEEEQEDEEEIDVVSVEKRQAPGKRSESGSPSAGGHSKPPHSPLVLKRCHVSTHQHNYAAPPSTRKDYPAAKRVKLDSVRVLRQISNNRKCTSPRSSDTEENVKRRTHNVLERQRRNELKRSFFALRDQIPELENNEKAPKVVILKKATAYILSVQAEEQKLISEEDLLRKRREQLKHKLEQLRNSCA
# UniProt O15265: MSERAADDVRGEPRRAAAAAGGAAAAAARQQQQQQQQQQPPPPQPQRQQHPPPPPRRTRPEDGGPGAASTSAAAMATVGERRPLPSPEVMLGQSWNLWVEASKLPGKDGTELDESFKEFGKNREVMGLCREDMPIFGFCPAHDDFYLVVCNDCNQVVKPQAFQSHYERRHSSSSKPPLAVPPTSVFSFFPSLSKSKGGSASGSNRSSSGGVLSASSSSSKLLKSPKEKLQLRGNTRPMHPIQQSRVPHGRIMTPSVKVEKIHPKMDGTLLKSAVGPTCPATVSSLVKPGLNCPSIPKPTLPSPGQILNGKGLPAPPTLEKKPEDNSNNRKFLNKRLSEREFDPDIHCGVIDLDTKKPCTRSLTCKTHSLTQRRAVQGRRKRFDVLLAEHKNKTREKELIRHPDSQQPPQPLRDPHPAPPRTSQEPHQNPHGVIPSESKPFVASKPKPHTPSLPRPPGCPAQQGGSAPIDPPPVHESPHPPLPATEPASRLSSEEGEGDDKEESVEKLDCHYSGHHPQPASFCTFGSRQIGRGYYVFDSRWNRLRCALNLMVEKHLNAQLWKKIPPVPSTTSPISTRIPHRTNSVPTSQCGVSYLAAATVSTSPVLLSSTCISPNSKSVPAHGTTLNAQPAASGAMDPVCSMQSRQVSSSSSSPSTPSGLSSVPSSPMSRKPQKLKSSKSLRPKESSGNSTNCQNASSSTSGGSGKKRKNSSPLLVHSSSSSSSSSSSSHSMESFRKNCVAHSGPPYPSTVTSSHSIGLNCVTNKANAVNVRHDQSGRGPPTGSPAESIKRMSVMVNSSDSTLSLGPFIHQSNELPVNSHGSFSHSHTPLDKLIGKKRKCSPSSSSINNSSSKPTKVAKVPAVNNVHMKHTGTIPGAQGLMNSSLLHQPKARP
# UniProt Q92830: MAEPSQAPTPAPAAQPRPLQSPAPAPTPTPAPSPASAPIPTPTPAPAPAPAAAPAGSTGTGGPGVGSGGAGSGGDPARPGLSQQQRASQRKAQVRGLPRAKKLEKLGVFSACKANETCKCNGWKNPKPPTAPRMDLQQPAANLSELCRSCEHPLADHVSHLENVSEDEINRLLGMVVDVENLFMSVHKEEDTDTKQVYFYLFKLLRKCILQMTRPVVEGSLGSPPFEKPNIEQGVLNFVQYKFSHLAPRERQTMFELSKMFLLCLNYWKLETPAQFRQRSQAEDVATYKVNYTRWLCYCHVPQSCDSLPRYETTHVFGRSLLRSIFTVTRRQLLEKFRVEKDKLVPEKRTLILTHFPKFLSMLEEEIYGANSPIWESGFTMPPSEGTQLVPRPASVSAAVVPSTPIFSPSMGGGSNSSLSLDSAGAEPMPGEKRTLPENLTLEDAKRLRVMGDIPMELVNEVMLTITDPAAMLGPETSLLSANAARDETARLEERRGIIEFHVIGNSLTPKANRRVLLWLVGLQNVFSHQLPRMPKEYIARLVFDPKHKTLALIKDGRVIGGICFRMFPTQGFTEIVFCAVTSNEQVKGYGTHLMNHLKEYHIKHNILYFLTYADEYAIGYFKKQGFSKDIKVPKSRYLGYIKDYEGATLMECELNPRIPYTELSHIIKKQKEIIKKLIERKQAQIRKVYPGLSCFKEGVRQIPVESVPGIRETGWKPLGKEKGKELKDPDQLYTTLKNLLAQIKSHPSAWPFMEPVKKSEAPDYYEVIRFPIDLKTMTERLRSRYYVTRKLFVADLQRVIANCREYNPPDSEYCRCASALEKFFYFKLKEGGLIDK
# Target: MYC-BioTAP (HEK293-TREx) (human) (UniProt P01106)
# Assay: affinity purification with mass spectrometry
row,binding,Substance
1,binds,ATXN7 (from UniProt O15265 1-892)
2,binds,KAT2A (from UniProt Q92830 1-837) (enzyme)

# Source: publication doi:10.1101/2022.04.22.489219
